The test deals with P388 leukemia ip, CD2F1 mice, survival T/C. In words: NCI In Vivo Anticancer Drug Screen. Data for tumor model P388 Leukemia (intraperitoneal) in CD2F1 (CDF1) mice. Particulars: T/C endpoint: median survival time, higher T/C = longer survival.
Setting [1] is: dose: 50.0 mg/kg/injection, schedule: Q01DX005 (ip), vehicle: Klucel (hydroxypropylcellulose) (HPC).
The mark [2] stands for this setting: dose: 100.0 mg/kg/injection, schedule: Q01DX005 (ip), vehicle: Klucel (hydroxypropylcellulose) (HPC).
Setting [3] is: dose: 200.0 mg/kg/injection, schedule: Q01DX005 (ip), vehicle: Klucel (hydroxypropylcellulose) (HPC).
[4] abbreviates: dose: 100.0 mg/kg/injection, schedule: Q01DX009 (ip), vehicle: Klucel (hydroxypropylcellulose) (HPC).
[5] abbreviates: dose: 200.0 mg/kg/injection, schedule: Q01DX009 (ip), vehicle: Klucel (hydroxypropylcellulose) (HPC).
Where [6] appears, read: dose: 50.0 mg/kg/injection, schedule: Q01DX009 (ip), vehicle: saline with Tween-80.
The mark [7] stands for this setting: dose: 75.0 mg/kg/injection, schedule: Q01DX009 (ip), vehicle: saline with Tween-80.

The structures appear in SMILES notation. The list does not hold the whole screen: it is rich in T/C values a quarter to a half above the control, in often repeated tests (any T/C) and in doses without a T/C. Other doses and runs of a compound stand elsewhere. T/C: endpoint of the treated group in % of that of the vehicle group. Some entries give survivors of the animals treated and no T/C: the source holds a T/C of zero for them, seemingly a mark for toxic or unscored doses. Some survivor counts are full or nearly so, which does not show that the dose was tolerated: survival well below the control is almost never listed, so the zero probably covers shortened survival too. Counts of survivors are from the toxicity check (mostly the fifth day) where no day follows; animals may have died later. Schedule codes are those of the source, read here as Q, the interval in days (D) or hours (H), X, the number of doses. Some entries were tested several times; the values are given in rising order. Some structures stand for samples that the source files as different forms (salt, stereo form or complex); doses refer to the form tested. For survival time, the PubChem record calls one and a half times the control and up active, and a quarter to a half above the control has no call in these data; cut-offs in other NCI protocols can differ. Additions like (4×) count equal records among those shown. Some T/C values carry the count of animals alive at the toxicity check (mostly the fifth day); where none is given, no animal had died by that day.

Turning to `c1ccc2c(c1)ccc1[nH]c3ccc4ccccc4c3c12`, the T/C is 92 % of control (dose: 6.25 mg/kg/injection, schedule: Q01DX005 (ip), vehicle: Klucel (hydroxypropylcellulose) (HPC), evaluated on day 20); 108, 125, 142 % of control (dose: 6.25 mg/kg/injection, schedule: Q01DX005 (ip), vehicle: Klucel (hydroxypropylcellulose) (HPC), evaluated on day 30); 115 % of control [5 of 6 alive] (dose: 12.5 mg/kg/injection, schedule: Q01DX005 (ip), vehicle: Klucel (hydroxypropylcellulose) (HPC), evaluated on day 20); 86, 98, 99 % of control (dose: 12.5 mg/kg/injection, schedule: Q01DX005 (ip), vehicle: Klucel (hydroxypropylcellulose) (HPC), evaluated on day 30). For the same compound, the survivor count was 2 of 6, 3 of 6, 6 of 6 (dose: 25.0 mg/kg/injection, schedule: Q01DX005 (ip), vehicle: Klucel (hydroxypropylcellulose) (HPC)); 0 of 6 and 6 of 6 under setting [1]; 2 of 6 under setting [2]; 6 of 6 under setting [3].
For the compound `O=[N+]([O-])c1ccc(Oc2ccccc2[N+](=O)[O-])nc1`, the survivor count is, setting by setting: (dose: 50.0 mg/kg/injection, schedule: Q01DX009 (ip), vehicle: Klucel (hydroxypropylcellulose) (HPC)) 6 of 6; under setting [4], 6 of 6; under setting [5], 6 of 6.
On to `CC(=O)OC1C(C)OC(OC(=O)C2CCC3C(C2)OC2(CC(OC(=O)/C=C/c4ccccc4)C(C)CO2)C32CO2)C(OC2OC(C)C(O)C(O)C2O)C1O` (configuration not stated), for which the T/C runs as follows: (dose: 10.0 mg/kg/injection, schedule: Q01DX005 (ip), vehicle: saline + alcohol) 130 % of control; (dose: 20.0 mg/kg/injection, schedule: Q01DX005 (ip), vehicle: saline + alcohol) 126 and 130 % of control; (dose: 40.0 mg/kg/injection, schedule: Q01DX005 (ip), vehicle: saline + alcohol) 127 % of control.
For the compound `CNCC(=O)NC(CO)C(=O)NC(CO)C(=O)NC1C(C(N)=O)OC(n2ccc(N)nc2=O)C(O)C1O` (configuration not stated), the survivor count (dose: 1.6 mg/kg/injection, schedule: Q01DX009 (ip), vehicle: water) is 6 of 6.
Take `CN(C)Cc1cc(C(=O)c2ccccc2)c(O)cc1O`: the survivor count is listed as 6 of 6 under setting [4] and 0 of 6 under setting [5].
Take `CC(C)CS(=O)(=O)OCCCCOS(=O)(=O)CC(C)C`: the survivor count under setting [3] is 5 of 5.
As for `CN1C(c2ccncc2)=NCC12CCCCC2`, the survivor count (dose: 50.0 mg/kg/injection, schedule: Q01DX005 (ip), vehicle: saline) is 0 of 6; the survivor count (dose: 50.0 mg/kg/injection, schedule: Q04DX002 (ip), vehicle: saline) is 3 of 6; the survivor count (dose: 100.0 mg/kg/injection, schedule: Q01DX005 (ip), vehicle: saline) is on record as 0 of 6; the survivor count (dose: 100.0 mg/kg/injection, schedule: Q04DX002 (ip), vehicle: saline) is listed as 0 of 6; the survivor count (dose: 200.0 mg/kg/injection, schedule: Q01DX005 (ip), vehicle: saline) was 0 of 6; the survivor count (dose: 200.0 mg/kg/injection, schedule: Q04DX002 (ip), vehicle: saline) is listed as 0 of 6. The survivor count (dose: 400.0 mg/kg/injection, schedule: Q04DX002 (ip), vehicle: saline) is given as 0 of 6.
Take `O=C(CCCc1ccc(N2C(=O)C=CC2=O)cc1)ON1C(=O)CCC1=O`: the survivor count was 2 of 5 (dose: 50.0 mg/kg/injection, schedule: Q04DX002 (ip), vehicle: saline with Tween-80); 0 of 5 (dose: 100.0 mg/kg/injection, schedule: Q04DX002 (ip), vehicle: saline with Tween-80); 0 of 5 (dose: 200.0 mg/kg/injection, schedule: Q04DX002 (ip), vehicle: saline with Tween-80); 0 of 5 (dose: 400.0 mg/kg/injection, schedule: Q04DX002 (ip), vehicle: saline with Tween-80).
Regarding `O=c1[nH]cc(CSc2ncc[nH]2)c(=O)[nH]1`, the T/C (dose: 120.0 mg/kg/injection, schedule: Q01DX005 (ip), vehicle: saline with Tween-80) was 129 % of control [4 of 6 alive]. Further, the survivor count (dose: 120.0 mg/kg/injection, schedule: Q01DX005 (ip), vehicle: saline) is 3 of 6; the survivor count (dose: 180.0 mg/kg/injection, schedule: Q01DX005 (ip), vehicle: saline) is given as 0 of 6; the survivor count (dose: 240.0 mg/kg/injection, schedule: Q01DX005 (ip), vehicle: saline with Tween-80) is reported as 0 of 6.
For the compound `N#CSCCC(=O)Nc1ccccc1`, the survivor count is, setting by setting: under setting [1], 0 of 5; under setting [2], 0 of 5; under setting [3], 0 of 5.
As to `Cc1ccc2c(c1)C(=O)C(CN1CCCCC1)CO2` (configuration not stated), for the setting “dose: 400.0 mg/kg/injection, schedule: Q04DX003 (ip), vehicle: saline”, the survivor count was 0 of 6.
`Cc1ccc(/C=C2/C/C(=C\c3ccc(C)cc3)C2=O)cc1`: the survivor count is 6 of 6 (dose: 100.0 mg/kg/injection, schedule: Q04DX003 (ip), vehicle: Klucel (hydroxypropylcellulose) (HPC)) and 6 of 6 (dose: 200.0 mg/kg/injection, schedule: Q04DX003 (ip), vehicle: Klucel (hydroxypropylcellulose) (HPC)).
With `Nc1[nH]c(=S)[nH]c(=O)c1N=Cc1ccc2c(c1)OCO2`, the T/C (dose: 400.0 mg/kg/injection, schedule: Q04DX003 (ip), vehicle: Klucel (hydroxypropylcellulose) (HPC)) is 133 % of control (2×).
For `CN(C)C1C(O)C2Oc3c(cc(O)c4c3C(=O)c3cc5c(c(O)c3C4=O)C(N=[N+]=N)CC(C)(O)C5)C(C)(O2)C1O` (configuration not stated), the T/C was 125 % of control (dose: 2.5 mg/kg/injection, schedule: Q01DX009 (ip), vehicle: other); 130 [5 of 6 alive] and 133 % of control (dose: 5.0 mg/kg/injection, schedule: Q01DX009 (ip), vehicle: other); 131 % of control (dose: 10.0 mg/kg/injection, schedule: Q01DX009 (ip), vehicle: other). The survivor count is, setting by setting: (dose: 20.0 mg/kg/injection, schedule: Q01DX009 (ip), vehicle: other) 5 of 6; (dose: 40.0 mg/kg/injection, schedule: Q01DX009 (ip), vehicle: other) 0 of 6; (dose: 80.0 mg/kg/injection, schedule: Q01DX009 (ip), vehicle: other) 0 of 6.
On to `O=NN(C(=O)NC1CC1)C1CC1`, for which the T/C (dose: 200.0 mg/kg/injection, schedule: Q01DX001 (ip), vehicle: water) is 130 % of control. For the setting “dose: 400.0 mg/kg/injection, schedule: Q01DX001 (ip), vehicle: water”, the survivor count is recorded as 0 of 6.
For the compound `O=[N+]([O-])c1cccc(C(O)C=C(C(F)(F)F)C(F)(F)F)c1` (configuration not stated), the survivor count (dose: 33.0 mg/kg/injection, schedule: Q01DX009 (ip), vehicle: saline with Tween-80) is listed as 6 of 6; the survivor count under setting [6] is recorded as 6 of 6; the survivor count under setting [7] was 6 of 6. The T/C under setting [6] is 127 % of control.
Take `CCNC(=S)N=Nc1c(O)[nH]c2ccccc12`: the survivor count runs as follows: (dose: 100.0 mg/kg/injection, schedule: Q01DX009 (ip), vehicle: saline) 6 of 6; (dose: 200.0 mg/kg/injection, schedule: Q01DX009 (ip), vehicle: saline) 6 of 6.
In the case of `Cc1cccc2c(Nc3ccc(NS(C)(=O)=O)cc3)c3ccccc3nc12`, the T/C is 137 % of control (dose: 1.2 mg/kg/injection, schedule: Q01DX009 (ip), vehicle: saline); 145 % of control (dose: 2.2 mg/kg/injection, schedule: Q01DX009 (ip), vehicle: saline with Tween-80); 145 % of control (dose: 3.3 mg/kg/injection, schedule: Q01DX009 (ip), vehicle: saline with Tween-80); 145 % of control (dose: 5.0 mg/kg/injection, schedule: Q01DX009 (ip), vehicle: saline with Tween-80); 140 % of control (dose: 22.0 mg/kg/injection, schedule: Q04DX003 (ip), vehicle: saline with Tween-80). For the same compound, the survivor count is, setting by setting: under setting [7], 6 of 6; (dose: 150.0 mg/kg/injection, schedule: Q01DX009 (ip), vehicle: saline with Tween-80) 6 of 6; (dose: 300.0 mg/kg/injection, schedule: Q01DX009 (ip), vehicle: saline with Tween-80) 6 of 6.

Source of the values: PubChem BioAssay AID330 (DTP/NCI, 2004).
